Source: PMC7819943, “Rice protein-binding microarrays: a tool to detect cis-acting elements near promoter regions in rice”
The list shows a part of the results.

Each sequence was assayed against T1, OsSMF1 (Oryza sativa, UniProt Q6ZLB0 1-436) (assay: protein-binding microarray (RPBM); PBS, 2% BSA, 51.3 ng/ul salmon testes DNA, 50 uM zinc acetate, 200 nM TF, 25 C, 1 h; high values mean tight binding). Settings: protein: recombinant; tags: N-terminal polyhistidine and DsRed monomer fusion (pET32a); chain copies: 2; label: CyDye5-dUTP incorporated in the synthesized complementary strand; 3' TTTTT single-stranded linker to array surface; dsDNA, one strand shown.
T1 sequence: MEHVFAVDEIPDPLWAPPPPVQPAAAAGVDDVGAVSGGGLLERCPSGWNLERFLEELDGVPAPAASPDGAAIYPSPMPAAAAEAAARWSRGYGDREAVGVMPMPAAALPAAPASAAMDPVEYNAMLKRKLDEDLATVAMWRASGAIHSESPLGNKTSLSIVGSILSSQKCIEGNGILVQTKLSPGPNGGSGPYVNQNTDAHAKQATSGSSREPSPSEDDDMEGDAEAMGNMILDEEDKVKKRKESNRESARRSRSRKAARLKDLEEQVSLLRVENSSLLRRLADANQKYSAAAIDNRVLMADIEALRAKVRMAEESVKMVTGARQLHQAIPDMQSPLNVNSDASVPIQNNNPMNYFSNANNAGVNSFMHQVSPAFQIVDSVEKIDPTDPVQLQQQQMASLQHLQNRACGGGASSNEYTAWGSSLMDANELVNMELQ
Method in brief: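 In PBS with 2% BSA, salmon testes DNA and 50 µM zinc acetate, 200 nM protein was incubated on a custom Agilent array at 25 °C for 1 h and then washed off. The array had been made double-stranded by primer extension with Cy5-dUTP and blocked with 2% BSA. The proteins were transcription factors fused N-terminally to polyhistidine and DsRed, expressed in E. coli BL21-CodonPlus and purified on Ni–NTA. The binding signal is per-feature fluorescence intensity (arbitrary units) from an Axon 4000B scanner.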
With “GAATCCGGCAGGGCTTCGCCCCTTCTTATCTTCTCCTCCCCGGAGTCACCTAGTGCAG” the binding signal was 5250 fluorescence intensity (a.u.).
In the case of “TGGGCCCCACATACCAGCCACGGCGCCGCCACGTCGGATCCGGAGTCACCTAGTGCAG”, the binding signal is reported as 15800 fluorescence intensity (a.u.).
In the case of “ATTGAACATTTCACGTCAGACATGGACATAGGATCCTGTTCGGAGTCACCTAGTGCAG”, the binding signal is reported as 4990 fluorescence intensity (a.u.).
“GGAAGATATGAGGTGAAGAAACTGATGCCCCAGGTGGCAACGGAGTCACCTAGTGCAG” was tested, and the binding signal was 3520 fluorescence intensity (a.u.).
With “ACCCTTTTCCTCGTATGGTAGTGACTCGTCTCGTTTGCTTCGGAGTCACCTAGTGCAG” the binding signal was 4470 fluorescence intensity (a.u.).
With “ACCTCGCTCACTCGCTCGCTCGATCACCGCGACCTCACTCCGGAGTCACCTAGTGCAG” the binding signal was 16800 fluorescence intensity (a.u.).
For “AGTCAGGTACATGGCACCAGGTAAGCTAGTATCATCTGTTCGGAGTCACCTAGTGCAG”, the binding signal was 3510 fluorescence intensity (a.u.).
With “CTCCAAATTAGTATCCAAACATCCGATGTGACATGGACTTCGGAGTCACCTAGTGCAG” the binding signal was 4370 fluorescence intensity (a.u.).
“AAGAGGAGAGCAAAACTCCAAATGGTCACACGTCTCTCGGCGGAGTCACCTAGTGCAG” was tested, and the binding signal was 4210 fluorescence intensity (a.u.).
In the case of “GGGGCGGCGAAACTTACAGCGAGCCGGTGAGCACGGCGAACGGAGTCACCTAGTGCAG”, the binding signal is reported as 24400 fluorescence intensity (a.u.).
With “ATGATGCTGAAAAGGAAGAGGGTTTTGATATGGATAGTGACGGAGTCACCTAGTGCAG” the binding signal was 9440 fluorescence intensity (a.u.).
“TCCTCACTGGAATGATGTCATGACATGAATAGATATATCTCGGAGTCACCTAGTGCAG” was tested, and the binding signal was 5910 fluorescence intensity (a.u.).
With “TAGTAACCTAGGAGCGGATGACGTATCCTCTCTCCGTCTCCGGAGTCACCTAGTGCAG” the binding signal was 9270 fluorescence intensity (a.u.).
“AAAATTACACACAGCATGTACATTACGTCACACCTCATTCCGGAGTCACCTAGTGCAG” was tested, and the binding signal was 8330 fluorescence intensity (a.u.).
For “AAGCTTCCGGATCTCCTCCTCGATCCTGCCGCGCATCTCCCGGAGTCACCTAGTGCAG”, the binding signal was 4300 fluorescence intensity (a.u.).
In the case of “TAAATTTCACAAAACTACGTGTATTTTGACCAAATTATCACGGAGTCACCTAGTGCAG”, the binding signal is reported as 3140 fluorescence intensity (a.u.).
In the case of “CCGGTGTCATGCGGGACCCACGTGTAAGTGATAGAGTGGGCGGAGTCACCTAGTGCAG”, the binding signal is reported as 6820 fluorescence intensity (a.u.).
“CCTCCGTGTGAGTGTGACGCACCTTACATCCCAGCACAGACGGAGTCACCTAGTGCAG” was tested, and the binding signal was 6090 fluorescence intensity (a.u.).
“ACCGGCCCAGAACAGTTGGGCAGCCCACGAAGTCACCAACCGGAGTCACCTAGTGCAG” was tested, and the binding signal was 3250 fluorescence intensity (a.u.).
For “CTCCACCACGAGTCACGAGTCACGACCACCTCTCCGGTCTCGGAGTCACCTAGTGCAG”, the binding signal was 4170 fluorescence intensity (a.u.).
For “AACCATGGGCTGCTTTCACCGTGTTGTGTTCATCTCCTTCCGGAGTCACCTAGTGCAG”, the binding signal was 25900 fluorescence intensity (a.u.).
“AAGTCGATCTTATGCTCAATTCTACGCACCGGTGGCAGCCCGGAGTCACCTAGTGCAG” was tested, and the binding signal was 3380 fluorescence intensity (a.u.).
For “TTGATGACTTAATAAAATTTTGACAGTGCTAAAAGTTACCCGGAGTCACCTAGTGCAG”, the binding signal was 34900 fluorescence intensity (a.u.).
“AAAAGATTCAATTCCGACCTGGCAAAGCGTCAGCCACTCGCGGAGTCACCTAGTGCAG” was tested, and the binding signal was 4800 fluorescence intensity (a.u.).
For “TATCAACGGGATCTGTCTCCTAAGTAATGACAAACTGAGACGGAGTCACCTAGTGCAG”, the binding signal was 33000 fluorescence intensity (a.u.).
“AGATGAGCTGTGAGCTGTGTGTGTGACACAGTCTACTGCTCGGAGTCACCTAGTGCAG” was tested, and the binding signal was 5870 fluorescence intensity (a.u.).
For “CTTGCACGACTCCATGCCGATGACTTAACGAGTTCACGCGCGGAGTCACCTAGTGCAG”, the binding signal was 3830 fluorescence intensity (a.u.).
In the case of “TTCATAGTTGTGGCACTGACGTATCAGCCGATGAGTCTCACGGAGTCACCTAGTGCAG”, the binding signal is reported as 3340 fluorescence intensity (a.u.).
“GCCACCCGTCAAAGGTGACTGGACTCACCAGTGGCCACTGCGGAGTCACCTAGTGCAG” was tested, and the binding signal was 3640 fluorescence intensity (a.u.).
“GGTTATCATTCTGTTCCAAGTCAATTCTTGCATCAATAACCGGAGTCACCTAGTGCAG” was tested, and the binding signal was 4060 fluorescence intensity (a.u.).
With “CACCGCCGTCGCCTTCGTCCTCCCACCGTGGAAGCCTCGCCGGAGTCACCTAGTGCAG” the binding signal was 3400 fluorescence intensity (a.u.).
For “ATGAAGCTCTGACTTCGCTACAGTTGAGAGCAAACGGCGCCGGAGTCACCTAGTGCAG”, the binding signal was 24500 fluorescence intensity (a.u.).
For “ACGCCCACGCCACGCGTCCCAGTCTCCCTGCATGTGATACCGGAGTCACCTAGTGCAG”, the binding signal was 5900 fluorescence intensity (a.u.).
In the case of “CACCATGCTAGTTTGTTGTAATAGGAGGGGTCATATTAGTCGGAGTCACCTAGTGCAG”, the binding signal is reported as 3360 fluorescence intensity (a.u.).
In the case of “GGAGAAGGGGTTCGAGTGAGATAGAATCCGGAGGAGGAGGCGGAGTCACCTAGTGCAG”, the binding signal is reported as 3180 fluorescence intensity (a.u.).
In the case of “TCAACAAGTTTTGTACACCTCACTCCTGTTGCTTTCGCGTCGGAGTCACCTAGTGCAG”, the binding signal is reported as 4920 fluorescence intensity (a.u.).
With “GGAGAGTAGAGGCGCCGCCCATTTTGATGAACAGCAGGTGCGGAGTCACCTAGTGCAG” the binding signal was 3210 fluorescence intensity (a.u.).
“GCCGTTTGTAGCTCGGTGACACGTGACGACGTGAGATCCACGGAGTCACCTAGTGCAG” was tested, and the binding signal was 3610 fluorescence intensity (a.u.).
“ACGTCTGACTCTTATGAGTTCTGACACAGCGAGACCGGGACGGAGTCACCTAGTGCAG” was tested, and the binding signal was 3960 fluorescence intensity (a.u.).
In the case of “ACTACCTACCACATACGCCATCCCAATGTAGCAGGTGGATCGGAGTCACCTAGTGCAG”, the binding signal is reported as 3310 fluorescence intensity (a.u.).
With “AGTCACTCTGTTTTACATGCACGTAAGATTAGCTTCCAAGCGGAGTCACCTAGTGCAG” the binding signal was 4690 fluorescence intensity (a.u.).
With “TTGAAGAGAAAATGTGACGTATCGTCTTCCACCATGTACCCGGAGTCACCTAGTGCAG” the binding signal was 5400 fluorescence intensity (a.u.).
